Experimental data as given in paper doi:10.1101/2024.07.25.605061.
No constants are given. Whether binding was seen depends on the method and setting. For some assays here: Binding seen in cells or lysates may run through a third protein. Some binding calls cover weakened binding; strength is not graded here. Sequences can lack the tags named with a protein. One block for each binder: values may come before it.

What was measured:
[1] = target: T1, GTE4 EML-interacting domain (amino acids 251-316), yeast two-hybrid fusion (Arabidopsis thaliana) (UniProt Q9LNC4); assay: two-hybrid
T1 sequence: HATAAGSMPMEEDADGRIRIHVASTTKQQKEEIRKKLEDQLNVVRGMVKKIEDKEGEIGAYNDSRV

[2] = target: T2, EID-deleted GTE4 (ΔEID), yeast two-hybrid fusion (Arabidopsis thaliana) (UniProt Q9LNC4); assay: two-hybrid
T2 sequence: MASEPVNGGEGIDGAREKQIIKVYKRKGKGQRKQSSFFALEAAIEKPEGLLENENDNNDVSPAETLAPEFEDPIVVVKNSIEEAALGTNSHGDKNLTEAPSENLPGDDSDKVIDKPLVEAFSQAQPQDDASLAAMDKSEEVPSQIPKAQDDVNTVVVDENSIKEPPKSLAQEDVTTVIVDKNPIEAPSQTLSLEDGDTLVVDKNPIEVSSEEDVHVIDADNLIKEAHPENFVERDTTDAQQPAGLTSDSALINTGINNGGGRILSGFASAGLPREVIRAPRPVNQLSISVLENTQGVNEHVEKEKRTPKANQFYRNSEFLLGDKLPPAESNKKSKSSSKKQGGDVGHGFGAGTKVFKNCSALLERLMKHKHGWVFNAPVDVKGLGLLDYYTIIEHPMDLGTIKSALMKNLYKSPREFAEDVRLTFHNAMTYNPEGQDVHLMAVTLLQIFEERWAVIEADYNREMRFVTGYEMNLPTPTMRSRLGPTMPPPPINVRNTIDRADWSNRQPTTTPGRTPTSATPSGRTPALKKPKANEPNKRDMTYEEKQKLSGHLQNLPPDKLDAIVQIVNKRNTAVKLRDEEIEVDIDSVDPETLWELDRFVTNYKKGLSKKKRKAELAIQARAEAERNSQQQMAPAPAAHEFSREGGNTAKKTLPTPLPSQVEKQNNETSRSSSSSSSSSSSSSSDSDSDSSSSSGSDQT

[3] = target: T3, GTE4, full-length, yeast two-hybrid fusion (Arabidopsis thaliana) (UniProt Q9LNC4); assay: two-hybrid
T3 sequence: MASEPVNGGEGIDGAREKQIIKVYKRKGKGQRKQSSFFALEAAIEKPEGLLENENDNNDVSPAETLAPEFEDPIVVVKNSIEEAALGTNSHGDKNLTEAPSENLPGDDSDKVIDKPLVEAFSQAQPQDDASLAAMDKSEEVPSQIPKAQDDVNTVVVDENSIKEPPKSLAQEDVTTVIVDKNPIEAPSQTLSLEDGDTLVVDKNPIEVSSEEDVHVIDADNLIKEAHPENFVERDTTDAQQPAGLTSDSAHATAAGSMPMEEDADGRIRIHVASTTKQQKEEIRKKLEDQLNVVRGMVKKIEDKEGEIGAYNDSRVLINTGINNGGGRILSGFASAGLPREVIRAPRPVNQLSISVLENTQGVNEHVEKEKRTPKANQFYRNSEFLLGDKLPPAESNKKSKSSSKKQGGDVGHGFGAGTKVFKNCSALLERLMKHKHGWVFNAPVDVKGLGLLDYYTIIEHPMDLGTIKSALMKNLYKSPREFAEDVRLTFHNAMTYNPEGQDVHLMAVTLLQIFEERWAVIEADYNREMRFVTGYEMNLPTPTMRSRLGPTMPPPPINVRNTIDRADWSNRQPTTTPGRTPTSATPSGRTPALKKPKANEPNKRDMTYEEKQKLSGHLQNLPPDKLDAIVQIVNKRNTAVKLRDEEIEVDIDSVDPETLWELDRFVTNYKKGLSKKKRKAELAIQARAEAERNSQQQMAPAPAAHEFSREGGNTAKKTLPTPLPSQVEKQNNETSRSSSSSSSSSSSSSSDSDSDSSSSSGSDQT

[4] = target: T4, GTE4-FLAG (Arabidopsis thaliana) (UniProt Q9LNC4); assay: co-IP
T4 sequence: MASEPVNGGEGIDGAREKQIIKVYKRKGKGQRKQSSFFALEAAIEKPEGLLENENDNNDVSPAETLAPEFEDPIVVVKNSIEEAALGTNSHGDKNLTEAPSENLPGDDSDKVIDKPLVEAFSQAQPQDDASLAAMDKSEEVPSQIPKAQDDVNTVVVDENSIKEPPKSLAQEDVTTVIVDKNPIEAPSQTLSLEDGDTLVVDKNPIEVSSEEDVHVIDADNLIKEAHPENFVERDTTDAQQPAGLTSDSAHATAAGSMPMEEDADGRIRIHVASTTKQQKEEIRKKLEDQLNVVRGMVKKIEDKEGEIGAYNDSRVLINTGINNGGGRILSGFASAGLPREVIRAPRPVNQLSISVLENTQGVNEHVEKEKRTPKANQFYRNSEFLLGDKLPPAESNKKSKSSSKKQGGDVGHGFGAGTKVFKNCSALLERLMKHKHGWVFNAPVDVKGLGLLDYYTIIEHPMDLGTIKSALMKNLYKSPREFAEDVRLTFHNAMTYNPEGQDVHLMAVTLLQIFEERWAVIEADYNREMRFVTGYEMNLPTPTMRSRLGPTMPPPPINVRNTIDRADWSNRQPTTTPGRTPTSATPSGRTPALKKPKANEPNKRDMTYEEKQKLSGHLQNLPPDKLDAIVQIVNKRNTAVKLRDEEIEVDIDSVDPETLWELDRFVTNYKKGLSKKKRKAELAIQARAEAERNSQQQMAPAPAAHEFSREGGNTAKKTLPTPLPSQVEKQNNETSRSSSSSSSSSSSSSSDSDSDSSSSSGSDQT

[5] = target: T5, GTE4-ΔEID-FLAG (Arabidopsis thaliana) (UniProt Q9LNC4); assay: co-IP
T5 sequence: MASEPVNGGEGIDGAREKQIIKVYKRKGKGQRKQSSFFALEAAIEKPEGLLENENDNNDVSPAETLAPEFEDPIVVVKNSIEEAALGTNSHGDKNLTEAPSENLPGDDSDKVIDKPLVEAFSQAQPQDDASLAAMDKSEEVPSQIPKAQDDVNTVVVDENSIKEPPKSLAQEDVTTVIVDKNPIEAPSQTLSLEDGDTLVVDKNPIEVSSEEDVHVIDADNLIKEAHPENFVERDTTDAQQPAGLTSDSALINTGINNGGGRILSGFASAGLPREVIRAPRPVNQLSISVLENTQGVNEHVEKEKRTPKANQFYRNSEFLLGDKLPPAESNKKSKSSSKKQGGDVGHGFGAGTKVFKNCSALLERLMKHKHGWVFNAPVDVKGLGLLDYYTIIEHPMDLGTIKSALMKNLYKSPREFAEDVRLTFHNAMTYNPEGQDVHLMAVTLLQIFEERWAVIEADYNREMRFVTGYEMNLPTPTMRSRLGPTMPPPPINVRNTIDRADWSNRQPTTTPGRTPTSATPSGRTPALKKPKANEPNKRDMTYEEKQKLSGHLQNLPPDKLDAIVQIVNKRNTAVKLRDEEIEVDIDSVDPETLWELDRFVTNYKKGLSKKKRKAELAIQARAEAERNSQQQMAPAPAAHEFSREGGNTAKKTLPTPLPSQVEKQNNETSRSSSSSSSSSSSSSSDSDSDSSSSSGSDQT

[6] = target: T6, EML1, full-length, yeast two-hybrid fusion (Arabidopsis thaliana) (UniProt Q9C7C4); assay: two-hybrid
T6 sequence: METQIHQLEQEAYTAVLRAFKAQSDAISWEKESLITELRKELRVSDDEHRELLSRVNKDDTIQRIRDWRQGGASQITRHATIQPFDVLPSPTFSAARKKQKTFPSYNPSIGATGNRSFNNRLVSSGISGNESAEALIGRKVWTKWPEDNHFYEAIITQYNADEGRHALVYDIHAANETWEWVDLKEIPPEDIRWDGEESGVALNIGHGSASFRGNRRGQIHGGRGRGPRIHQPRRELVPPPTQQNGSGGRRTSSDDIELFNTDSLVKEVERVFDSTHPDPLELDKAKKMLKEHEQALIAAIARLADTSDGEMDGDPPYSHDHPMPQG

- binding [4]: binds
- binding [5]: no binding
B2: EML2-Myc (protein, UniProt Q9FG29 1-313)
chain: MEAQIHILEQEAYSAVLRAFQAQADEFSWDKATVMTNLRKELRISDDENRQLLNNVHNDDLIKRIRDSRPRGGNQVVRHQSLDVHPSPTFSASRKKQKTFQSYPSIGSTRSKSFNNRVVSANEPAEALIGRKVWTKWPEDNSFYEAVVTQYNANEGRHALVYDINTVNETWEWVDLNEIPTKDIRWDGEEDGVTLNVGHGGGTTRGNRRTLSHGGRGRGPRTQPRREHLATENGGGRKFFGEIELFNTDSLVKEVERVFDSNLPDPHELDKAKKLLKEHEQALIAAIARLTDASDYESDGEEPYSHELPMLLG

- binding [3]: binds
B4: N-terminal region of EML1 (amino acids 1-293), yeast two-hybrid fusion (domain or fragment, UniProt Q9C7C4 1-293)
chain: METQIHQLEQEAYTAVLRAFKAQSDAISWEKESLITELRKELRVSDDEHRELLSRVNKDDTIQRIRDWRQGGASQITRHATIQPFDVLPSPTFSAARKKQKTFPSYNPSIGATGNRSFNNRLVSSGISGNESAEALIGRKVWTKWPEDNHFYEAIITQYNADEGRHALVYDIHAANETWEWVDLKEIPPEDIRWDGEESGVALNIGHGSASFRGNRRGQIHGGRGRGPRIHQPRRELVPPPTQQNGSGGRRTSSDDIELFNTDSLVKEVERVFDSTHPDPLELDKAKKMLKEH

Continued, binder first:

B1: EML1, full-length, yeast two-hybrid fusion (protein, UniProt Q9C7C4 1-327)
chain: METQIHQLEQEAYTAVLRAFKAQSDAISWEKESLITELRKELRVSDDEHRELLSRVNKDDTIQRIRDWRQGGASQITRHATIQPFDVLPSPTFSAARKKQKTFPSYNPSIGATGNRSFNNRLVSSGISGNESAEALIGRKVWTKWPEDNHFYEAIITQYNADEGRHALVYDIHAANETWEWVDLKEIPPEDIRWDGEESGVALNIGHGSASFRGNRRGQIHGGRGRGPRIHQPRRELVPPPTQQNGSGGRRTSSDDIELFNTDSLVKEVERVFDSTHPDPLELDKAKKMLKEHEQALIAAIARLADTSDGEMDGDPPYSHDHPMPQG
- binding [1]: binds
- binding [2]: no binding
- binding [3]: binds

B3: EML2, full-length, yeast two-hybrid fusion (protein, UniProt Q9FG29 1-313)
chain: MEAQIHILEQEAYSAVLRAFQAQADEFSWDKATVMTNLRKELRISDDENRQLLNNVHNDDLIKRIRDSRPRGGNQVVRHQSLDVHPSPTFSASRKKQKTFQSYPSIGSTRSKSFNNRVVSANEPAEALIGRKVWTKWPEDNSFYEAVVTQYNANEGRHALVYDINTVNETWEWVDLNEIPTKDIRWDGEEDGVTLNVGHGGGTTRGNRRTLSHGGRGRGPRTQPRREHLATENGGGRKFFGEIELFNTDSLVKEVERVFDSNLPDPHELDKAKKLLKEHEQALIAAIARLTDASDYESDGEEPYSHELPMLLG
- binding [3]: binds
- binding [6]: binds
